No constants are given. Whether binding was seen depends on the method and setting. Binding seen in cells or lysates may run through a third protein. Some binding calls cover weakened binding; strength is not graded here. Where a sequence is shown, tags or fusion partners need not be part of it.

This passage reports binding results from PMC8213198.

For test [1], the target named is T1, Flag-C-NDP52 (C-terminal cleavage fragment of NDP52) (UniProt Q13137).
T1 sequence: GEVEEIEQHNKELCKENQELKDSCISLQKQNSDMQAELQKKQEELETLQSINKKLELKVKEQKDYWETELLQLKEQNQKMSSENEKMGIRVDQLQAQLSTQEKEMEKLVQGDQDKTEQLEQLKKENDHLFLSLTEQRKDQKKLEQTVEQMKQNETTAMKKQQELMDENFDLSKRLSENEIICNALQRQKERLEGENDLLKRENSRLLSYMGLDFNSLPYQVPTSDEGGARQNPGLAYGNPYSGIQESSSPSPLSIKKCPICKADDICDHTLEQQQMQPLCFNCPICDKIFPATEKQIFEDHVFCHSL
The test is described as follows: co-IP; HeLa transfected with Flag-NDP52^wt or Flag-C-NDP52 for 24 h; lysates precipitated with anti-Flag antibody; Western blot for TBK1, normalised to anti-Flag IgG light chain. In general terms: A western blot detects proteins with antibodies after separation by electrophoresis.

For test [2], the target named is T2, Flag-NDP52^wt (calcium-binding and coiled-coil domain-containing protein 2/nuclear dot 10 protein 52) (UniProt Q13137).
T2 sequence: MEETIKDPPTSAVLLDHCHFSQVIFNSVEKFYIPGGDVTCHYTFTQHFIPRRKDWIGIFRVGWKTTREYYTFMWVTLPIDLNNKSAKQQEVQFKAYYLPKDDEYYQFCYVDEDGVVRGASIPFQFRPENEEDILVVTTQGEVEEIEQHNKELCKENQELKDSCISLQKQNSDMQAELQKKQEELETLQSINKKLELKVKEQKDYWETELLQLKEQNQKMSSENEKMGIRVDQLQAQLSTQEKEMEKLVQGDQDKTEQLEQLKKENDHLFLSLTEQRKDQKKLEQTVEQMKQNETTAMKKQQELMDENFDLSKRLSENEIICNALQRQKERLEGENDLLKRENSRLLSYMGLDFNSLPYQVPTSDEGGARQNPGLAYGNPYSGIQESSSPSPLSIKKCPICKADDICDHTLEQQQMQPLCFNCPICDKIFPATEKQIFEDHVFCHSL
Described as above.

B1: TANK-binding kinase 1 (TBK1) (enzyme, UniProt Q9UHD2 1-729)
chain: MQSTSNHLWLLSDILGQGATANVFRGRHKKTGDLFAIKVFNNISFLRPVDVQMREFEVLKKLNHKNIVKLFAIEEETTTRHKVLIMEFCPCGSLYTVLEEPSNAYGLPESEFLIVLRDVVGGMNHLRENGIVHRDIKPGNIMRVIGEDGQSVYKLTDFGAARELEDDEQFVSLYGTEEYLHPDMYERAVLRKDHQKKYGATVDLWSIGVTFYHAATGSLPFRPFEGPRRNKEVMYKIITGKPSGAISGVQKAENGPIDWSGDMPVSCSLSRGLQVLLTPVLANILEADQEKCWGFDQFFAETSDILHRMVIHVFSLQQMTAHKIYIHSYNTATIFHELVYKQTKIISSNQELIYEGRRLVLEPGRLAQHFPKTTEENPIFVVSREPLNTIGLIYEKISLPKVHPRYDLDGDASMAKAITGVVCYACRIASTLLLYQELMRKGIRWLIELIKDDYNETVHKKTEVVITLDFCIRNIEKTVKVYEKLMKINLEAAELGEISDIHTKLLRLSSSQGTIETSLQDIDSRLSPGGSLADAWAHQEGTHPKDRNVEKLQVLLNCMTEIYYQFKKDKAERRLAYNEEQIHKFDKQKLYYHATKAMTHFTDECVKKYEAFLNKSEEWIRKMLHLRKQLLSLTNQCFDIEEEVSKYQEYTNELQETLPQKMFTASSGIKHTMTPIYPSSNTLVEMTLGMKKLKEEMEGVVKELAENNHILERFGSLTMDGGLRNVDCL
With B1, the results for the binding entry in test [1] and in test [2] were “binds weakly” and “binds”, respectively.
